Measured values from the supplement of paper PMC10849652.
This is one part of the list.

Amino acid sequences for entries named in this document (tags omitted). A change or cut given only in a name is not applied to a line headed by its entry.
UniProt J3KR51, whole entry, looked up: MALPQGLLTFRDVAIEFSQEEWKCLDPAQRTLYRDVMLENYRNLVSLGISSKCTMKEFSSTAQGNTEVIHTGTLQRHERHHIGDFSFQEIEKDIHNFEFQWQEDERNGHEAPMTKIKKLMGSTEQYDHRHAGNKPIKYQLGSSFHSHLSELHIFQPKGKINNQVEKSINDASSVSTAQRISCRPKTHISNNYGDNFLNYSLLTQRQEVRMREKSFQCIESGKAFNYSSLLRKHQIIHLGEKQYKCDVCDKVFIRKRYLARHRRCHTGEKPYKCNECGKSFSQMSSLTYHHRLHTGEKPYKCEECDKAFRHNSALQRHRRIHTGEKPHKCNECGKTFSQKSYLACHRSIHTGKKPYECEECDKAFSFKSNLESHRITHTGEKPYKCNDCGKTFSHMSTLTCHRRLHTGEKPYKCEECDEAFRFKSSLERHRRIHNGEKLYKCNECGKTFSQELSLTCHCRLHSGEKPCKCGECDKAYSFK
UniProt O43257, whole entry, looked up: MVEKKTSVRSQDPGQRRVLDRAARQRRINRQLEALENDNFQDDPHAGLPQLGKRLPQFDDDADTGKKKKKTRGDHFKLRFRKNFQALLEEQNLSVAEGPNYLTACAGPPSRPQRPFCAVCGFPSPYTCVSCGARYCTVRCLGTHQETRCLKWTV
UniProt Q96MX3: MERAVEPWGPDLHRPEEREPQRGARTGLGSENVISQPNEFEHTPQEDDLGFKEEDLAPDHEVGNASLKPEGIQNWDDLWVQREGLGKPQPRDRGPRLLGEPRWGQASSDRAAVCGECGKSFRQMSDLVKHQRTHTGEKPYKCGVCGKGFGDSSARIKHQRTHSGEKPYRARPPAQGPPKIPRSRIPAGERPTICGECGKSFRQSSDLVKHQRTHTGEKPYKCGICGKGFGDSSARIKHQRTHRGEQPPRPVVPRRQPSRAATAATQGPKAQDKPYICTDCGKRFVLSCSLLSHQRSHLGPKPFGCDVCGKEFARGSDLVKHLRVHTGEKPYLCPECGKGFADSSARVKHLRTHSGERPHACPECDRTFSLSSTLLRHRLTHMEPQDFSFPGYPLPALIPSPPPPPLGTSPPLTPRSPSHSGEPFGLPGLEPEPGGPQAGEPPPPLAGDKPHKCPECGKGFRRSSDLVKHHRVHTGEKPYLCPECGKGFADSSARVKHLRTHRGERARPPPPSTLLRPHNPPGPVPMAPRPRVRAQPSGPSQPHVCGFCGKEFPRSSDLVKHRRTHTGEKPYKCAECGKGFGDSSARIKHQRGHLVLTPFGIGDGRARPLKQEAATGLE
UniProt Q8TAU3: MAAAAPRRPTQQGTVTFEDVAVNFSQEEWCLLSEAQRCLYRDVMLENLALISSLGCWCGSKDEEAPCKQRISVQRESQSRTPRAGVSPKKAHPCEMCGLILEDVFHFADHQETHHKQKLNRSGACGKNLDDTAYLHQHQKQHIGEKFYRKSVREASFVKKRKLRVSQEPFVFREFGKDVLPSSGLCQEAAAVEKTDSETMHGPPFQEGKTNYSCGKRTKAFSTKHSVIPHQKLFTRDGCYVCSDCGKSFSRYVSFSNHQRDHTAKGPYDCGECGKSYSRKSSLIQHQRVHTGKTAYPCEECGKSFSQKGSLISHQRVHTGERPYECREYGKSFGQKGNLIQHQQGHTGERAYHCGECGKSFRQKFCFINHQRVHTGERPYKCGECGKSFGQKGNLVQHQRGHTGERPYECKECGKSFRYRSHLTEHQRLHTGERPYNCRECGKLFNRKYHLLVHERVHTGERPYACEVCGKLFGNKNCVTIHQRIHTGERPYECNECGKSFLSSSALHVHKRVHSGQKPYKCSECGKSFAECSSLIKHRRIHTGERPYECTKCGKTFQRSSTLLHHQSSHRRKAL
UniProt Q8TCN5: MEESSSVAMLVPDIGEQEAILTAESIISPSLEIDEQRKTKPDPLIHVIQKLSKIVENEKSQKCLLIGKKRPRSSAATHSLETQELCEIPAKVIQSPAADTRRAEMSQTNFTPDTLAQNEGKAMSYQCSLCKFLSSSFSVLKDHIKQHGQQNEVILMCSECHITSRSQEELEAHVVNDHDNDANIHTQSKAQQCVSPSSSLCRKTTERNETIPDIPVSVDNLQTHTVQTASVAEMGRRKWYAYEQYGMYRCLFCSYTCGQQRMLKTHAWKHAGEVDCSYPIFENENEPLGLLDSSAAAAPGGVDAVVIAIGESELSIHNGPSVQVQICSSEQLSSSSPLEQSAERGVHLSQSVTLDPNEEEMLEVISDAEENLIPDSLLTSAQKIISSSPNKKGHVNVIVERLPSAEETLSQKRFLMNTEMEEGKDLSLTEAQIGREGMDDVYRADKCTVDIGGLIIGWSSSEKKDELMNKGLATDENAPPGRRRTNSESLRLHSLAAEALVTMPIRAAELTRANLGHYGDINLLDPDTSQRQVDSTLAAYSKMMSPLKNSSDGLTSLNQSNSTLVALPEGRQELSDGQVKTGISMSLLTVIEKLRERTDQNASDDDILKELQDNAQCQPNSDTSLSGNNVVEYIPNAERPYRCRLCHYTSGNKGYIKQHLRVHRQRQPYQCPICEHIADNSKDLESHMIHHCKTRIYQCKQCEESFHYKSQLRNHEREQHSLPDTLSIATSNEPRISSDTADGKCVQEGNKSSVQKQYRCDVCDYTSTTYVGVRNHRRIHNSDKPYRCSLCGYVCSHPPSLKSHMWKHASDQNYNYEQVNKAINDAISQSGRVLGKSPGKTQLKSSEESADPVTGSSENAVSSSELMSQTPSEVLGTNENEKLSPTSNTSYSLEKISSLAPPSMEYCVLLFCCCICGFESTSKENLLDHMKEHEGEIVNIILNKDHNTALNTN
UniProt Q9NW07: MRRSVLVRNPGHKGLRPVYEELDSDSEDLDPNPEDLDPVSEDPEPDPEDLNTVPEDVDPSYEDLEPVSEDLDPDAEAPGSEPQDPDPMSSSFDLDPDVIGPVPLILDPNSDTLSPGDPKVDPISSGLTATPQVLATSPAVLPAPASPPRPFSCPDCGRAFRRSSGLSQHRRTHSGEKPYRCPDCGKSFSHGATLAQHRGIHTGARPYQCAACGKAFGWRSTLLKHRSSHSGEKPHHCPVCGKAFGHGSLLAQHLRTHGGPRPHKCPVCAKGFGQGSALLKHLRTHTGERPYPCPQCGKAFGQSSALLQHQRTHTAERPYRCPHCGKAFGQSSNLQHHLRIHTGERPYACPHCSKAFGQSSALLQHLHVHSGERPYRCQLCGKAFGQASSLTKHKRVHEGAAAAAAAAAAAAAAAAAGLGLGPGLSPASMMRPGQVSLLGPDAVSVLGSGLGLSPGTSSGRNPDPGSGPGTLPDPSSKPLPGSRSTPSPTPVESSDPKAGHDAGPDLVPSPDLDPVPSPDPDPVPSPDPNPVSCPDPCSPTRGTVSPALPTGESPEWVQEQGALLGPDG
UniProt Q86YH2: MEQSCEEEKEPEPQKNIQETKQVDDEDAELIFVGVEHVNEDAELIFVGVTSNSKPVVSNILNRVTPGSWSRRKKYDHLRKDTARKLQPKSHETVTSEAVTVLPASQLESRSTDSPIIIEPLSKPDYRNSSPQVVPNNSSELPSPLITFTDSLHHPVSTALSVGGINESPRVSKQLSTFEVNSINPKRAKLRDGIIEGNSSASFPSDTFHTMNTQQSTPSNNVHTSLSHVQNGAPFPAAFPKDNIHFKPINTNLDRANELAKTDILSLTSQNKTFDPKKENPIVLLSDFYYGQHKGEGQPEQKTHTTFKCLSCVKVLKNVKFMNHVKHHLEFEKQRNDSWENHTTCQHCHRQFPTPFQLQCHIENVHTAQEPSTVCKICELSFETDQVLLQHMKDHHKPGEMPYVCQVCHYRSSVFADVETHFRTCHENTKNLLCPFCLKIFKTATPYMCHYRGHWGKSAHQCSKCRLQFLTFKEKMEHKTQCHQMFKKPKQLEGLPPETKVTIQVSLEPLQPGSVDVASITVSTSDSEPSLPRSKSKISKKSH
UniProt Q8IZC7: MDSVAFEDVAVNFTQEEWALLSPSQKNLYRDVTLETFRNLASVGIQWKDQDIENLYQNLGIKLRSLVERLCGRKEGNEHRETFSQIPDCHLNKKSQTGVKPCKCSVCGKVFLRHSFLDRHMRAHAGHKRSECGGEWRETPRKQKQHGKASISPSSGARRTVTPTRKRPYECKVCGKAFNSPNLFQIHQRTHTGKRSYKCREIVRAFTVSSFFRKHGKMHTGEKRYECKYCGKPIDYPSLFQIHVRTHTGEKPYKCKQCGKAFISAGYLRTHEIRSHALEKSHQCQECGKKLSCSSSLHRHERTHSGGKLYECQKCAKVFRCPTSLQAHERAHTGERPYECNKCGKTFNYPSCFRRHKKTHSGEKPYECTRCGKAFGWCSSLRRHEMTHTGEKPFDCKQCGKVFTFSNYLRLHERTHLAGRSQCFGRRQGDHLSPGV
UniProt Q8IYH5: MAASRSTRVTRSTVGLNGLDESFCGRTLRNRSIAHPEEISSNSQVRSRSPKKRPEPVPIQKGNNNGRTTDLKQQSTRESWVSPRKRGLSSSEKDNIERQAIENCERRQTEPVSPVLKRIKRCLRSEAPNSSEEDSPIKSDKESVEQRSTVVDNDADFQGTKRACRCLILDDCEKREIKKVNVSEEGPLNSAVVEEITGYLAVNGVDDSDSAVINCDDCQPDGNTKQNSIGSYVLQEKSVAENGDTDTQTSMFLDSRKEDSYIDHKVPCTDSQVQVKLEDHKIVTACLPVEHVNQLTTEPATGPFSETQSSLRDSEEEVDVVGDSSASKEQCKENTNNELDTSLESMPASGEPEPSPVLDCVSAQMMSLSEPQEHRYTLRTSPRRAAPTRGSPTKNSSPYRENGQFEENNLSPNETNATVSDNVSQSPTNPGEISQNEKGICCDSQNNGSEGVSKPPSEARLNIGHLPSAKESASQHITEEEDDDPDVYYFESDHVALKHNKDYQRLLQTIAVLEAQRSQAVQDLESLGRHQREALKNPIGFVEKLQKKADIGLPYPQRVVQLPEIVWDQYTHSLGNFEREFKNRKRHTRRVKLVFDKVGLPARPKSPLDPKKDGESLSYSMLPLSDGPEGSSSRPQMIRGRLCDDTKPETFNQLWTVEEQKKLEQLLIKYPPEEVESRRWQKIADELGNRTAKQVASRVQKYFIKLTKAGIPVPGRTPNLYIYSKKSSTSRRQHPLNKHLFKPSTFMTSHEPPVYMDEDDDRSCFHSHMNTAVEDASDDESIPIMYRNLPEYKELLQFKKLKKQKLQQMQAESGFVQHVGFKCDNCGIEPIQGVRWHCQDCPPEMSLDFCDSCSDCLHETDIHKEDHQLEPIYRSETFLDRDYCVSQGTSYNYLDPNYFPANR
UniProt Q96IQ9: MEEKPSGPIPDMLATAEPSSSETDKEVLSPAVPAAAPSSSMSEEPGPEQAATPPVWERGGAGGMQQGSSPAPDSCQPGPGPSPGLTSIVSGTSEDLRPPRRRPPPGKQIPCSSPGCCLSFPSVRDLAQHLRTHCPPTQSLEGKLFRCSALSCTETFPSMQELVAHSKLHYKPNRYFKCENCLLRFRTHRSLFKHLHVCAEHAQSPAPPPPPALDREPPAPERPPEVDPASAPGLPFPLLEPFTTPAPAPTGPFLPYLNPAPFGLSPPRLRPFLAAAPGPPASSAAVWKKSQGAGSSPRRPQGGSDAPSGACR
UniProt Q6N043: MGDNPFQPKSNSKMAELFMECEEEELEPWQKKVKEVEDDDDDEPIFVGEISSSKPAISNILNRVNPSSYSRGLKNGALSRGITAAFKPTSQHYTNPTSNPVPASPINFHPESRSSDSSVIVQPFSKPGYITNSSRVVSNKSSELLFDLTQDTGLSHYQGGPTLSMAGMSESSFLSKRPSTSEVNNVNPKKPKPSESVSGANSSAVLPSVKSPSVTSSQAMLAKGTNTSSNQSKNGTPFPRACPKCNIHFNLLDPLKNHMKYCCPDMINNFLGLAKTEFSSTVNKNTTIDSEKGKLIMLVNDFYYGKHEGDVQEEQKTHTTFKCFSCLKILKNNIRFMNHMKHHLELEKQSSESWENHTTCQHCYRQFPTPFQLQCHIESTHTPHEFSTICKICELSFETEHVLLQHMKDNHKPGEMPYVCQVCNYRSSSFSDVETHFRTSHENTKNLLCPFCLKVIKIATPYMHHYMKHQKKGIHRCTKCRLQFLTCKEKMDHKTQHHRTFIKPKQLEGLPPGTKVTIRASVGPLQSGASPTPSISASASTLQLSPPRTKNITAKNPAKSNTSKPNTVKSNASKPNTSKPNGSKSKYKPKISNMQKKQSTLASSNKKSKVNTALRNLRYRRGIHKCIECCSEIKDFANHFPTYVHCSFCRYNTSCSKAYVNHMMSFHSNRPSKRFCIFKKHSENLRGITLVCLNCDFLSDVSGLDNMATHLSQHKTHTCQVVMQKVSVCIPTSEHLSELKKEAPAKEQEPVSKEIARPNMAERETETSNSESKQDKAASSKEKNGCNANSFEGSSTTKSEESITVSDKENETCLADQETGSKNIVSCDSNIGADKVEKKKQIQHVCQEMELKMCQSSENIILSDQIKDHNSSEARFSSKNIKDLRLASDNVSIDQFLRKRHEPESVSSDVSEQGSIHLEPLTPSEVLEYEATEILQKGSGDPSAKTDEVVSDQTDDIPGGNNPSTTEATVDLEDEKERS

Key:
Assay in all cases: log2 fold change, soluble protein after heating vs DMSO (PISA); higher = thermal stabilisation; K562 lysate, 10 uM; active = over 0.2 and 3.5 SD of the protein, either way, in both replicates (recomputed)
[1] = compound: CS(=O)(=O)N1CCN(Cc2cc3nc(-c4cccc5[nH]ncc45)nc(N4CCOCC4)c3s2)CC1 [pictilisib]
Summary of the method: (§1)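 The values are log-two fold changes in thermal stability compared with solvent controls and come from duplicates. They were obtained by TMTpro 16plex LC-MS/MS, with channel sums equalised, on the supernatant after 21,000xg for 90 min. That supernatant came from crude K562 extract at 1 mg/mL protein treated with 10 μM compound for 30 min, heated for 3 min across 48°C-58°C, pooled and brought to 0.5% NP-40 at 4°C.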

[2] = compound: Cc1ccc(NC(=O)c2ccc(CN3CC[C@H](N(C)C)C3)c(C(F)(F)F)c2)cc1Nc1nccc(-c2cncnc2)n1 [bafetinib]
Summary of the method: as §1

[3] = compound: NC1(c2ccc(-c3nc4ccn5c(=O)[nH]nc5c4cc3-c3ccccc3)cc2)CCC1
Summary of the method: as §1

[4] = compound: C[C@H](Nc1ncnc2nc[nH]c12)c1cc2cccc(Cl)c2c(=O)n1-c1ccccc1 [duvelisib]
Summary of the method: as §1

[5] = compound: Cc1cc(Nc2cc(N3CCN(C)CC3)nc(Sc3ccc(NC(=O)C4CC4)cc3)n2)n[nH]1 [tozasertib]
Summary of the method: as §1

[6] = compound: Cc1nc(Nc2ncc(C(=O)Nc3c(C)cccc3Cl)s2)cc(N2CCN(CCO)CC2)n1 [dasatinib]
Summary of the method: as §1

[7] = compound: Cn1cc(-c2ccc3c(c2)CCN3C(=O)Cc2cccc(C(F)(F)F)c2)c2c(N)ncnc21
Summary of the method: as §1

[8] = compound: C[C@@H](Oc1cc(-c2cnn(C3CCNCC3)c2)cnc1N)c1c(Cl)ccc(F)c1Cl [crizotinib]
Summary of the method: as §1

[9] = compound: C[C@H](C1=CC=C(C=C1)C(=O)NC2=C3C=CNC3=NC=C2)N
Summary of the method: as §1

[10] = compound: Cc1cc(Nc2cc(CN3CCOCC3)c3nc(C)c(Cc4ccc(Cl)cc4F)n3n2)n[nH]1 [gandotinib]
Summary of the method: as §1

[11] = compound: Cc1ccc(-n2nc(C(C)(C)C)cc2NC(=O)Nc2ccc(OCCN3CCOCC3)c3ccccc23)cc1 [doramapimod]
Summary of the method: as §1

[12] = compound: Cc1cccc(CC(=O)N2CCc3c2ccc(-c2cn(C)c4ncnc(N)c24)c3F)n1
Summary of the method: as §1

[13] = compound: Cc1cn(-c2cc(NC(=O)c3ccc(C)c(Nc4nccc(-c5cccnc5)n4)c3)cc(C(F)(F)F)c2)cn1 [nilotinib]
Summary of the method: as §1

[14] = compound: Cc1nc(Nc2n[nH]c3c2CN(C(=O)N[C@H](CN(C)C)c2ccccc2)C3(C)C)c2sccc2n1
Summary of the method: as §1

[15] = compound: Cc1ncc(-c2ccnc(Nc3ccc(S(C)(=O)=O)cc3)n2)n1C(C)C
Summary of the method: as §1

[16] = compound: Cn1cc(CNCC2CCN(c3ncc(C(=O)NO)cn3)CC2)c2ccccc21 [quisinostat]
Summary of the method: as §1

[17] = compound: Cn1cncc1[C@@](N)(c1ccc(Cl)cc1)c1ccc2c(c1)c(-c1cccc(Cl)c1)cc(=O)n2C [tipifarnib]
Summary of the method: as §1

[18] = compound: NC(=O)Nc1cc(-c2cccc(F)c2)sc1C(=O)N[C@H]1CCCNC1
Summary of the method: as §1

[19] = compound: CS(=O)(=O)CCNCc1ccc(-c2ccc3ncnc(Nc4ccc(OCc5cccc(F)c5)c(Cl)c4)c3c2)o1 [lapatinib]
Summary of the method: as §1

[20] = compound: NC(=O)c1cnc(N[C@@H]2CCCC[C@@H]2N)nc1Nc1cccc(-n2nccn2)c1
Summary of the method: as §1

Measured: log2 fold change

ZNF525 (UniProt J3KR51)
inactive: [1] -0.041 | [2] -0.214 | [3] -0.165

ZNF225 (UniProt Q9UK10)
inactive: [1] -0.066 | [4] 0.011 | [5] -0.18 | [2] -0.269 | [6] -0.117 | [7] -0.389 | [3] -0.388

ZNF644 (UniProt Q9H582)
inactive: [1] -0.133 | [8] -0.026 | [9] 0.04 | [4] -0.069 | [10] -0.015 | [5] 0.015 | [11] 0.037 | [2] -0.165 | [12] 0.086 | [13] -0.062 | [14] 0.153 | [6] 0.066 | [15] 0.017 | [7] -0.061 | [16] -0.026 | [17] -0.012 | [18] 0.058 | [3] -0.167

ZNF8 (UniProt P17098)
inactive: [1] 0.038 | [8] -0.202 | [9] -0.064 | [4] 0.112 | [10] -0.125 | [11] 0.199 | [2] 0.151 | [12] 0.009 | [13] -0.119 | [14] -0.228 | [6] -0.072 | [15] 0.185 | [7] 0.088 | [16] -0.431 | [17] -0.101 | [18] 0.131 | [3] 0.034

ZNHIT1 (UniProt O43257)
inactive: [1] 0.002 | [5] -0.15 | [2] -0.073 | [13] -0.023 | [14] -0.057 | [15] -0.134 | [17] 0.034 | [3] -0.147

ZNF48 (UniProt Q96MX3)
inactive: [19] -0.094 | [9] -0.191 | [10] 0.129 | [5] 0.005 | [12] -0.101 | [20] -0.06

ZNF687 (UniProt Q8N1G0)
inactive: [19] -0.115 | [8] -0.097 | [4] -0.004 | [5] 0.038 | [11] 0.08 | [13] -0.166 | [14] -0.09 | [6] -0.017 | [15] 0.017 | [7] 0.208 | [16] -0.016 | [17] 0.109 | [18] 0.025 | [20] -0.119 | [3] 0.009

ZNF417 (UniProt Q8TAU3)
inactive: [1] 0.04 | [2] -0.17

ZNF507 (UniProt Q8TCN5)
inactive: [1] -0.03 | [8] 0.038 | [9] 0.006 | [4] 0.016 | [10] -0.023 | [5] 0.044 | [11] 0.018 | [2] -0.062 | [12] 0.011 | [13] 0.001 | [14] -0.075 | [6] -0.015 | [15] 0.003 | [7] -0.032 | [16] -0.022 | [17] 0.022 | [18] 0.039 | [3] -0.002

ZNF460 (UniProt Q14592)
inactive: [1] -0.124 | [5] 0.079 | [2] -0.13

ZNF358 (UniProt Q9NW07)
inactive: [19] 0.036 | [20] -0.084 | [3] 0.111

ZNF280B (UniProt Q86YH2)
inactive: [1] 0.111 | [8] 0.013 | [9] -0.079 | [10] 0.066 | [11] 0.06 | [2] -0.073 | [12] -0.181 | [13] 0.006 | [14] 0.071 | [15] -0.048 | [16] -0.013 | [17] -0.011 | [18] 0.004 | [3] -0.019

ZNF444 (UniProt Q8N0Y2)
inactive: [1] -0.575 | [8] -0.047 | [9] -0.115 | [4] 0 | [10] 0.249 | [11] -0.012 | [2] -0.676 | [12] 0.182 | [6] 0.009 | [7] -0.065 | [16] -0.108 | [18] -0.063

ZNF800 (UniProt Q2TB10)
inactive: [19] -0.017 | [4] -0.019 | [6] -0.044 | [7] 0.005 | [20] 0.002 | [3] -0.126

ZNF668 isoform 2 (UniProt Q96K58)
inactive: [19] 0.068 | [8] 0.111 | [11] -0.047 | [13] 0.062 | [14] -0.166 | [15] -0.044 | [16] 0.08 | [17] 0.038 | [18] 0.074 | [20] 0.049 | [3] 0.064

Quoted at random: two entries already listed, in no set order.
ZNF800 (UniProt Q2TB10)
inactive: [19] -0.017 | [4] -0.019 | [6] -0.044 | [7] 0.005 | [20] 0.002 | [3] -0.126

ZNF280B (UniProt Q86YH2)
inactive: [1] 0.111 | [8] 0.013 | [9] -0.079 | [10] 0.066 | [11] 0.06 | [2] -0.073 | [12] -0.181 | [13] 0.006 | [14] 0.071 | [15] -0.048 | [16] -0.013 | [17] -0.011 | [18] 0.004 | [3] -0.019

The list continues:

ZSWIM8 isoform 4 (UniProt A7E2V4)
inactive: [1] -0.253 | [8] 0.027 | [9] -0.027 | [4] -0.145 | [10] -0.153 | [5] 0.169 | [11] -0.084 | [2] -0.257 | [12] 0.205 | [13] -0.009 | [14] 0.129 | [6] 0.085 | [15] 0.07 | [7] 0.042 | [16] -0.051 | [17] -0.065 | [18] 0.067 | [3] -0.112

ZNF512B (UniProt Q96KM6)
inactive: [19] -0.075 | [20] 0.018

ZNF101 (UniProt Q8IZC7)
inactive: [19] 0.054 | [8] -0.085 | [4] 0.075 | [11] -0.127 | [6] -0.077 | [7] -0.036 | [16] -0.035 | [18] -0.084 | [20] -0.045 | [3] 0.245

ZZZ3 (UniProt Q8IYH5)
inactive: [1] -0.161 | [8] 0.061 | [9] 0.003 | [4] -0.073 | [10] -0.005 | [5] 0.001 | [11] -0.102 | [2] 0.153 | [12] 0.055 | [13] 0.067 | [14] 0.027 | [6] 0.016 | [15] 0.132 | [7] 0.044 | [16] -0.044 | [17] 0.106 | [18] 0.021 | [3] 0.043

ZNF414 isoform 2 (UniProt Q96IQ9)
inactive: [8] 0.075 | [9] -0.036 | [10] 0.07 | [5] 0.44 | [11] 0.068 | [12] 0.175 | [16] -0.04 | [18] 0

ZNF785 (UniProt A8K8V0)
inactive: [19] -0.025 | [4] -0.021 | [6] 0.105 | [7] 0.317 | [20] -0.058

ZNF280D (UniProt Q6N043)
inactive: [19] -0.249 | [9] 0.007 | [10] -0.009 | [12] -0.028 | [20] 0.111

ZNF384 (UniProt Q8TF68)
inactive: [19] -0.151 | [8] -0.07 | [4] -0.013 | [5] -0.156 | [11] 0.098 | [13] 0.053 | [14] -0.117 | [6] -0.221 | [15] 0.055 | [7] 0.003 | [16] -0.054 | [17] 0.186 | [18] -0.078 | [20] 0.199 | [3] -0.08
